Reference: patent US20170022546
A negative result means that nothing was seen under these conditions. Tags and fusion partners may be left off the protein sequences shown. For at least one entry, the source does not settle the construct or the ends of the probe.

Biological target: T1, MBD-1x (75 aa methyl-CpG binding domain of MBD1) (UniProt Q9UIS9)
T1 sequence (looked up, limits assumed): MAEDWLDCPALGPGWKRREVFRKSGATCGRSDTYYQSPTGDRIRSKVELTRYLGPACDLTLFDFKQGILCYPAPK
Test: EMSA
Details: purified recombinant protein

Row | Sequence | binding result (5mC at 36 CpG sites (M.SssI), dose-dependent complex, 80 mM KCl, pH 7.5, poly(dI-dC), complex persists up to 600 mM KCl, variant of uDLX1 827 bp, unmethylated) | binding result (no complex with increasing MBD-1x)
1 | GACCAATCCCCAGTGATTATGCAAGACAGCGGACCAATCAGCTCCGCCAGCTCATGAATATTTATGACCTTCGCTGAGTCAAAGCTTTGAACCGAGTTTGGGGAGCTCAGCAGCATCATGCTTAGACTTTTCAAAGAGACAAACTCCATTTTCTTATGAATGGAAAGTGAAAACCCCTGTTCCGCTTAAATTGGGTTCCTTCCTGTCCTGAGAAACATAGAGACCCCCAAAAGGGAAGCAGAGGAGAGAAAGTCCCACACCCAGACCCCGCGAGAAGAGATGACCATGACCACCATGCCAGAAAGTCTCAACAGCCCCGTGTCGGGCAAGGCGGTGTTTATGGAGTTTGGGCCGCCCAACCAGCAAATGTCTCCTTCTCCCATGTCCCACGGGCACTACTCCATGCACTGTTTACACTCGGCGGGCCATTCGCAGCCCGACGGCGCCTACAGCTCAGCCTCGTCCTTCTCCCGACCGCTGGGCTACCCCTACGTCAACTCGGTCAGCAGCCACGCATCCAGCCCCTACATCAGTTCGGTGCAGTCCTACCCGGGCAGCGCCAGCCTCGCCCAGAGCCGCCTGGAGGACCCAGGTACGTGCGCTTGCCAGGGAGAGGGAGAGGAGGAGGTACAAGGGAGAGAGGGAAAGAAGGAGCGGGGGAGAAGAGGAGAGGGAGAGAGAGAGAAAGAGAAGAGAGGAGAGCGAGGTGGGGTGGGGGTGGGGAGGGCGCGGGAGCAGTGGAGGTTTCGAATATCAATCTATAGATCCTTGTCACAGCAAATAAATTTTTTTAAAAATTCCCTCAATTTGCAACTATCCAGCCAAGG (double strand) [mDLX1 827 bp, M.SssI methylated] | binds | –
2 | GACCAATCCCCAGTGATTATGCAAGACAGCGGACCAATCAGCTCCGCCAGCTCATGAATATTTATGACCTTCGCTGAGTCAAAGCTTTGAACCGAGTTTGGGGAGCTCAGCAGCATCATGCTTAGACTTTTCAAAGAGACAAACTCCATTTTCTTATGAATGGAAAGTGAAAACCCCTGTTCCGCTTAAATTGGGTTCCTTCCTGTCCTGAGAAACATAGAGACCCCCAAAAGGGAAGCAGAGGAGAGAAAGTCCCACACCCAGACCCCGCGAGAAGAGATGACCATGACCACCATGCCAGAAAGTCTCAACAGCCCCGTGTCGGGCAAGGCGGTGTTTATGGAGTTTGGGCCGCCCAACCAGCAAATGTCTCCTTCTCCCATGTCCCACGGGCACTACTCCATGCACTGTTTACACTCGGCGGGCCATTCGCAGCCCGACGGCGCCTACAGCTCAGCCTCGTCCTTCTCCCGACCGCTGGGCTACCCCTACGTCAACTCGGTCAGCAGCCACGCATCCAGCCCCTACATCAGTTCGGTGCAGTCCTACCCGGGCAGCGCCAGCCTCGCCCAGAGCCGCCTGGAGGACCCAGGTACGTGCGCTTGCCAGGGAGAGGGAGAGGAGGAGGTACAAGGGAGAGAGGGAAAGAAGGAGCGGGGGAGAAGAGGAGAGGGAGAGAGAGAGAAAGAGAAGAGAGGAGAGCGAGGTGGGGTGGGGGTGGGGAGGGCGCGGGAGCAGTGGAGGTTTCGAATATCAATCTATAGATCCTTGTCACAGCAAATAAATTTTTTTAAAAATTCCCTCAATTTGCAACTATCCAGCCAAGG (double strand) [uDLX1 827 bp, unmethylated] | – | no binding
